Laboratory results from paper PMC6523311 (Pharmaceutics, 2019).

Columns and labels:
[1] = general procedure: Fmoc solid-phase peptide synthesis; 2-chlorotrityl chloride resin loaded with 0.96 mmol/g Fmoc-Gly-OH; DIC/Oxyma Pure; HATU/HOAt/DIPEA (cyclisation); PyBOP/HOBt/DIPEA (conjugation); details: for final purity (method not given): 220 nm
[2] = general procedure: Fmoc solid-phase peptide synthesis; 2-chlorotrityl chloride resin; DIC/Oxyma Pure; HATU/HOAt/DIPEA (cyclisation); PyBOP/HOBt/DIPEA (conjugation); details: whole synthesis

Substance	conjugation yield ([1]; conjugation step) [%]	final purity (method not given) ([1]; conjugation step) [% purity]	other results
Alkynyl-PEG5-Val-Cit-Gly-Pro-Cry-55gly	78	>99	
c(RGDfK)-PEG5-Val-Cit-Gly-Pro-Cy5.5	68	>99	
c(RGDfK)-PEG5-Val-Cit-PABC-Cy5.5	62	>99	
Alkynyl-PEG5-Val-Cit-Gly-Pro-Cy5.5	43	91	
Alkynyl-PEG5-Val-Cit-Gly-Pro			final purity (method not given) ([1]; whole synthesis, scale of the general procedure 250 mg resin): 96% purity; isolated mass [2]: 77 mg; isolated yield ([2]; scale of the general procedure 250 mg resin): 32%
PEPTIDE1{R.G.D.[dF].K}|PEPTIDE2{[N3Pr]}$PEPTIDE1,PEPTIDE1,1:R1-5:R2|PEPTIDE1,PEPTIDE2,5:R3-1:R2$$$V2.0			cyclisation yield ([1]; cyclisation step): 10%; final purity (method not given) ([1]; cyclisation step): >99% purity
c(RGDfK)-PEG5-Val-Cit-Gly-Pro-Cry-55gly	54	>99	
c(RGDfK)-PEG5-Val-Cit-PABC-Cry-55gly	64	>99	

For some assays here: Strings that start with PEPTIDE1 are HELM notation: dots part the residues, brackets hold end groups and non-standard residues.
